The values below come from PubChem BioAssay AID328 (DTP/NCI, 2004).

Each structure is given as a SMILES string. The list does not hold the whole screen: it is rich in T/C values a quarter to a half above the control, in often repeated tests (any T/C) and in doses without a T/C. Further doses and runs are listed elsewhere. T/C gives the treated animals as a percentage of the vehicle group. Some doses have a count of surviving animals in place of a T/C: the source files T/C as zero there, which appears to mark a toxic dose or a test without result, not a measured value. Some survivor counts are full or nearly so, which does not show that the dose was tolerated: survival well below the control is almost never listed, so the zero probably covers shortened survival too. Survivors were counted at the toxicity check, usually on the fifth day, unless a day is given; later deaths do not show. Schedule codes are those of the source, taken here to give the interval after Q, in days (D) or hours (H), and the number of doses after X. Some entries hold several experiments; the values are given in rising order. For survival time, the PubChem record calls one and a half times the control and up active, and a quarter to a half above the control has no call in these data; cut-offs in other NCI protocols can differ. Counts like (3×) give the number of equal values in this list. Starred links: 1 amine or outer side, 2 acyl side, 3 side chain; linkers in the order of their positions; H or OH if unused. Positions of bridges follow the written chain, without caps; N, C: chain ends. Non-standard residues stand in square brackets, D forms with d. Residues, ends and D or L forms follow the SMILES beside them. Chains are numbered I, II in the order given. Actinocin(1to9) = Cc1c2oc3c(C)ccc(C(=O)[*:2])c3nc-2c(C(=O)[*:1])c(N)c1=O; NMeV = CN[CH](C(=O)O)C(C)C; Sar = CNCC(=O)O

The experiment deals with BDF1 mice, P388 leukemia ip, median survival T/C. Description: NCI In Vivo Anticancer Drug Screen. Data for tumor model P388 Leukemia (intraperitoneal) in B6D2F1 (BDF1) mice. To be noted: T/C endpoint: median survival time, higher T/C = longer survival. The procedure, abridged:
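Transplantable tumour in mice; compound vs vehicle dosing; survival scored; ratio of treated to control reported.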

Setting [1] is: dose: 50.0 mg/kg/injection, schedule: Q01DX009 (ip), vehicle: saline with Tween-80.
The mark [2] stands for this setting: dose: 100.0 mg/kg/injection, schedule: Q01DX009 (ip), vehicle: saline with Tween-80.
Setting [3] is: dose: 200.0 mg/kg/injection, schedule: Q01DX009 (ip), vehicle: saline with Tween-80.
[4] abbreviates: dose: 400.0 mg/kg/injection, schedule: Q01DX009 (ip), vehicle: Klucel (hydroxypropylcellulose) (HPC).
[5] abbreviates: dose: 400.0 mg/kg/injection, schedule: Q04DX003 (ip), vehicle: saline.
Where [6] appears, read: dose: 100.0 mg/kg/injection, schedule: Q01DX009 (ip), vehicle: Klucel (hydroxypropylcellulose) (HPC).
The mark [7] stands for this setting: dose: 200.0 mg/kg/injection, schedule: Q01DX009 (ip), vehicle: Klucel (hydroxypropylcellulose) (HPC).

For `CCC/C=[CH]/[Hg][Cl]`, the survivor count is, setting by setting: (dose: 6.25 mg/kg/injection, schedule: Q01DX009 (ip), vehicle: other) 6 of 6; (dose: 12.5 mg/kg/injection, schedule: Q01DX009 (ip), vehicle: other) 6 of 6; (dose: 25.0 mg/kg/injection, schedule: Q01DX009 (ip), vehicle: other) 6 of 6.
For the molecule `COc1cc(NC(C)CCCN)c2ncccc2c1Sc1ccc(Cl)cc1` (stereo not given), the survivor count reads like this: under setting [1], 0 of 6; under setting [2], 0 of 6; under setting [3], 0 of 6.
With `Nc1ccc(OCCCc2c(-c3ccccc3)nc(N)[nH]c2=O)cc1`, the survivor count under setting [3] is 4 of 6.
As to `CN(C)c1ccc(C(=C2C=CC(=[N+](C)C)C=C2)c2ccccc2Cl)cc1`, for the setting “dose: 10.0 mg/kg/injection, schedule: Q01DX010 (ip), vehicle: saline”, the T/C was 125 % of control. Also, the survivor count is, setting by setting: (dose: 20.0 mg/kg/injection, schedule: Q01DX010 (ip), vehicle: saline) 6 of 6; (dose: 40.0 mg/kg/injection, schedule: Q01DX010 (ip), vehicle: saline) 2 of 6.
Turning to `CCOC(=O)Nc1ccc2c(c1)/C(=N\NC(N)=S)c1ccccc1-2`, the survivor count is listed as 6 of 6 (dose: 1.5 mg/kg/injection, schedule: Q04DX003 (ip), vehicle: gum acacia); 6 of 6 (dose: 3.0 mg/kg/injection, schedule: Q01DX009 (ip), vehicle: gum acacia); 6 of 6 (dose: 6.0 mg/kg/injection, schedule: Q01DX009 (ip), vehicle: gum acacia); 6 of 6 (dose: 12.5 mg/kg/injection, schedule: Q04DX003 (ip), vehicle: gum acacia); 6 of 6 (dose: 25.0 mg/kg/injection, schedule: Q04DX003 (ip), vehicle: gum acacia); 5 of 6 (dose: 50.0 mg/kg/injection, schedule: Q01DX001 (ip), vehicle: Klucel (hydroxypropylcellulose) (HPC)). In addition, the survivor count (dose: 50.0 mg/kg/injection, schedule: Q04DX003 (ip), vehicle: gum acacia) is 6 of 6; the survivor count (dose: 100.0 mg/kg/injection, schedule: Q01DX001 (ip), vehicle: Klucel (hydroxypropylcellulose) (HPC)) is reported as 6 of 6; the survivor count (dose: 100.0 mg/kg/injection, schedule: Q04DX003 (ip), vehicle: gum acacia) is 6 of 6; the survivor count (dose: 200.0 mg/kg/injection, schedule: Q04DX003 (ip), vehicle: gum acacia) is given as 6 of 6; the survivor count under setting [4] is recorded as 6 of 6.
In the case of `Cc1[nH]c(=O)[nH]c(=O)c1NCCO`, the survivor count is on record as 6 of 6 (dose: 100.0 mg/kg/injection, schedule: Q01DX009 (ip), vehicle: water); 6 of 6 (dose: 200.0 mg/kg/injection, schedule: Q01DX009 (ip), vehicle: water); 6 of 6 (dose: 400.0 mg/kg/injection, schedule: Q01DX009 (ip), vehicle: water).
As to `c1ccc(Nc2ncc3cnccn23)cc1`, the survivor count under setting [5] is reported as 3 of 6.
`CC(=O)N/N=C\C1=CCC=C(Br)S1`: the survivor count under setting [3] is given as 5 of 6.
As for `CCC(C)C1NC(=O)C(NC(=O)c2c3nc4c(C(=O)NC5C(=O)NC(C(C)CC)C(=O)N6CCCC6C(=O)N(C)CC(=O)N(C)C(C(C)C)C(=O)OC5C)ccc(C)c4oc-3c(C)c(=O)c2N)C(C)OC(=O)C(C(C)C)N(C)C(=O)CN(C)C(=O)C2CCCN2C1=O` (stereo not given) (I: TIP[Sar][NMeV] / II: TIP[Sar][NMeV]; ester I:1-I:C, II:1-II:C; linker I:N-II:N via Actinocin(1to9); configuration not given here), the survivor count is, setting by setting: (dose: 0.2 mg/kg/injection, schedule: Q01DX010 (ip), vehicle: saline) 6 of 6; (dose: 0.4 mg/kg/injection, schedule: Q01DX010 (ip), vehicle: saline) 6 of 6; (dose: 400.0 micrograms/kg/injection, schedule: Q01DX010 (ip), vehicle: saline) 6 of 6. The T/C is, setting by setting: (dose: 12.5 micrograms/kg/injection, schedule: Q04DX003 (ip), vehicle: saline) 140 % of control; (dose: 50.0 micrograms/kg/injection, schedule: Q01DX001 (ip), vehicle: saline) 140 % of control; (dose: 100.0 micrograms/kg/injection, schedule: Q01DX001 (ip), vehicle: saline) 136 % of control.
Consider `COc1c(Br)cc(Br)cc1/C=C/[N+](=O)[O-]`, for which the T/C (dose: 12.5 mg/kg/injection, schedule: Q01DX009 (ip), vehicle: saline with Tween-80) was 127 % of control. For the same molecule, the survivor count is 6 of 6 (dose: 25.0 mg/kg/injection, schedule: Q01DX009 (ip), vehicle: saline with Tween-80); 2 of 6 and 5 of 6 under setting [1]; 3 of 6 under setting [2].
With `CC1(C)c2c3ccccc3cc3cccc(c23)[S+]1c1ccccc1` (stereo not given), the T/C (dose: 5.0 mg/kg/injection, schedule: Q01DX009 (ip), vehicle: saline with Tween-80) is 125 % of control. Also, for the setting “dose: 20.0 mg/kg/injection, schedule: Q01DX009 (ip), vehicle: saline with Tween-80”, the survivor count is given as 3 of 6.
In the case of `CCCCCCCC/C=C\CCCCCCCC(=O)OC`, the T/C runs as follows: under setting [2], 125 % of control; (dose: 400.0 mg/kg/injection, schedule: Q01DX009 (ip), vehicle: saline with Tween-80) 125 % of control.
Consider `CC1CC(C)(O)C2C3(C)CCCC2(COC3=O)C12CCC1(CCOC1=O)O2` (stereo not given), for which, where the note is “dose: 20.0 mg/kg/injection, schedule: Q01DX009 (ip), vehicle: Klucel (hydroxypropylcellulose) (HPC)”, the survivor count is 6 of 6.
On to `CC1(C)N=C(N)N=C(N)N1c1ccc(CCCCc2ccc(S(=O)(=O)F)cc2Cl)c(Cl)c1`, for which the T/C by setting is: (dose: 2.2 mg/kg/injection, schedule: Q01DX009 (ip), vehicle: saline with Tween-80) 126 % of control; (dose: 3.3 mg/kg/injection, schedule: Q01DX009 (ip), vehicle: saline with Tween-80) 142 % of control; (dose: 300.0 mg/kg/injection, schedule: Q04DX003 (ip), vehicle: saline with Tween-80) 145 % of control.
For the molecule `ClCc1ccncc1`, the survivor count under setting [5] is reported as 1 of 6.
As for `NC(CCC(=O)NNc1ccccc1)C(=O)O` (stereo not given), the survivor count (dose: 60.0 mg/kg/injection, schedule: Q01DX009 (ip), vehicle: saline with Tween-80) was 7 of 7.
Regarding `Cc1nc(N)c2nc(SCc3ccc(Cl)cc3)c(N)nc2n1`, for the setting “dose: 100.0 mg/kg/injection, schedule: Q04DX003 (ip), vehicle: saline with Tween-80”, the survivor count is reported as 6 of 6.
As to `C/C(=N/N(C)C)c1ccc([N+](=O)[O-])cc1`, the survivor count is, setting by setting: under setting [6], 0 of 6; under setting [7], 0 of 6; (dose: 225.0 mg/kg/injection, schedule: Q04DX003 (ip), vehicle: saline with Tween-80) 0 of 6; (dose: 340.0 mg/kg/injection, schedule: Q04DX003 (ip), vehicle: saline with Tween-80) 4 of 6.
For `C[N+](C)(C)c1ncnc2nc[nH]c12`, under “dose: 400.0 mg/kg/injection, schedule: Q01DX001 (ip), vehicle: saline”, the survivor count is recorded as 3 of 6.
In the case of `ClCCN(CCCN(CCCl)c1ccccc1)c1ccccc1`, the T/C runs as follows: (dose: 100.0 mg/kg/injection, schedule: Q01DX001 (ip), vehicle: saline with Tween-80) 137 % of control; (dose: 200.0 mg/kg/injection, schedule: Q01DX001 (ip), vehicle: saline + alcohol) 126 % of control.
On to `COc1ccc(C(=O)C(O)c2ccccc2)cc1` (stereo not given), for which the survivor count (dose: 400.0 mg/kg/injection, schedule: Q04DX003 (ip), vehicle: other) is on record as 6 of 6.
With `COc1cc(C)c(C2NC(=O)c3ccccc3N2)cc1C` (stereo not given), the T/C by setting is: under setting [6], 140 % of control; under setting [7], 129 % of control; under setting [4], 154, 170, 185 % of control (2×).
`CCCCCCCCCCCCS(=O)CC(C)O` (stereo not given): the T/C by setting is: (dose: 50.0 mg/kg/injection, schedule: Q01DX009 (ip), vehicle: other) 126 % of control; (dose: 200.0 mg/kg/injection, schedule: Q01DX009 (ip), vehicle: other) 133 % of control.
